Laboratory results published in the supplement of paper PMC10849652.
The list shows a part of the results.

The chains behind the UniProt entries cited, without tags or fusion partners. Where a name states a change or a piece, a line headed by the entry shows the natural chain unless it says otherwise.
UniProt Q9Y4R8, whole entry, looked up: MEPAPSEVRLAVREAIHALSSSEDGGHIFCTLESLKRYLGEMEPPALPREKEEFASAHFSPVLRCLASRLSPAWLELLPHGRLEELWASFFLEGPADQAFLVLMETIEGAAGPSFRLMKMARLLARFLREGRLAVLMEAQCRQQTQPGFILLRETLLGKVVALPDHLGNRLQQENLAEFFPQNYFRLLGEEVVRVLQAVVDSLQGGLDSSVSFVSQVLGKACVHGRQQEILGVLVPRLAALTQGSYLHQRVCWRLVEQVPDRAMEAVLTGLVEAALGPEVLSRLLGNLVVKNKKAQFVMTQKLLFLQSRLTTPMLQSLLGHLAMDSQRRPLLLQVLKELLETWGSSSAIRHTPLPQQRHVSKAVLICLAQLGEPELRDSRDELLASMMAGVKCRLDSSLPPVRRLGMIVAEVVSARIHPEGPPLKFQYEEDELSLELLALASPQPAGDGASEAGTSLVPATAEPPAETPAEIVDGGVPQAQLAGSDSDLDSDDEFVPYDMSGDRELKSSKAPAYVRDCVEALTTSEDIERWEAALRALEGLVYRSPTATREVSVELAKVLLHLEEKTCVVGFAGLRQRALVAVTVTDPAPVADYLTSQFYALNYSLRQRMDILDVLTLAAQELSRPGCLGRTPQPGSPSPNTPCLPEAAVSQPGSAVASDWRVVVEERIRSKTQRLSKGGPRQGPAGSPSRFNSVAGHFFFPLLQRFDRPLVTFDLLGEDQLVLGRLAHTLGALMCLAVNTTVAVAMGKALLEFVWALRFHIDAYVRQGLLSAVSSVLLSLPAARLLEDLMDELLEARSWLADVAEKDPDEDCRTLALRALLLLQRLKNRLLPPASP
UniProt Q7Z7C8, whole entry, looked up: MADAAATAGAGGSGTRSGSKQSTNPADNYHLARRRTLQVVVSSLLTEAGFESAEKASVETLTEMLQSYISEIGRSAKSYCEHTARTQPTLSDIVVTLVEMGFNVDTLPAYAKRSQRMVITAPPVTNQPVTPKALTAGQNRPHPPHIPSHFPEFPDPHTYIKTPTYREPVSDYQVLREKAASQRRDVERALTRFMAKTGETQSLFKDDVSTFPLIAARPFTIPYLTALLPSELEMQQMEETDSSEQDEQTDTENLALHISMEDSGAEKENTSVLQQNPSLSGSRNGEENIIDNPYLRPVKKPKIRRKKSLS
UniProt A6NFQ2: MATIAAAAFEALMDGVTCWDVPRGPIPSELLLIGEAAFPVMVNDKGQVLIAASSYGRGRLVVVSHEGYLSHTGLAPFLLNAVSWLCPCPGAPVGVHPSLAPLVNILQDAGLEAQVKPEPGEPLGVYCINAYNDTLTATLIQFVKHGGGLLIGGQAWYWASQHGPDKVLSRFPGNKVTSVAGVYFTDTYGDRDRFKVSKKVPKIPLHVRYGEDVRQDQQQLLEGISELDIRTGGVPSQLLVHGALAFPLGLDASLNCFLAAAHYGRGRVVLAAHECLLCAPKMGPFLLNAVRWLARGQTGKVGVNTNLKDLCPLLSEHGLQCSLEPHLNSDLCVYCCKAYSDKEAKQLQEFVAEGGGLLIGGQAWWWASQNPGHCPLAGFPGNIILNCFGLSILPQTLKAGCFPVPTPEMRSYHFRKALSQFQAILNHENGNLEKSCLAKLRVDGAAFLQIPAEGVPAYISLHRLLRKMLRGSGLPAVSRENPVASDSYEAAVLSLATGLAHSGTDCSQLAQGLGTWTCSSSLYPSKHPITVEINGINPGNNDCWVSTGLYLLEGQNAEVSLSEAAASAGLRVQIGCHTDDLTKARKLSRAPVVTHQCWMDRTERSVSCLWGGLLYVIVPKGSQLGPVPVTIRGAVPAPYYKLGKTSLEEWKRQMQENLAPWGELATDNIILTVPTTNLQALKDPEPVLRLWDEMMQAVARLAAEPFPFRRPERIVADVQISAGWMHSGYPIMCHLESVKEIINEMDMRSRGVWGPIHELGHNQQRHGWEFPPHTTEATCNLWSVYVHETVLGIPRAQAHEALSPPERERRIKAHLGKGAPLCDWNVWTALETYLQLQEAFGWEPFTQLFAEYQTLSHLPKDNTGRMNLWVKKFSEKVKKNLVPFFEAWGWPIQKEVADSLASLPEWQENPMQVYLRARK
UniProt P20226, whole entry, looked up: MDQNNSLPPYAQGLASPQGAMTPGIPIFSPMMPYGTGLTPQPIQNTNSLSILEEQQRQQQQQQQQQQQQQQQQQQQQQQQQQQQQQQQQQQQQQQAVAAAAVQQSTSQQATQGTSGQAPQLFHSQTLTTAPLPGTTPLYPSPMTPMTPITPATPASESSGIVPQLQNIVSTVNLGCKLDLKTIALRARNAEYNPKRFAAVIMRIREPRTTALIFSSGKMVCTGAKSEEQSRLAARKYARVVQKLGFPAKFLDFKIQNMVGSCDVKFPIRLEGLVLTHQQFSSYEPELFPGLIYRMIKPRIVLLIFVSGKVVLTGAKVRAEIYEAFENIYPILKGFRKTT
UniProt Q9NU19: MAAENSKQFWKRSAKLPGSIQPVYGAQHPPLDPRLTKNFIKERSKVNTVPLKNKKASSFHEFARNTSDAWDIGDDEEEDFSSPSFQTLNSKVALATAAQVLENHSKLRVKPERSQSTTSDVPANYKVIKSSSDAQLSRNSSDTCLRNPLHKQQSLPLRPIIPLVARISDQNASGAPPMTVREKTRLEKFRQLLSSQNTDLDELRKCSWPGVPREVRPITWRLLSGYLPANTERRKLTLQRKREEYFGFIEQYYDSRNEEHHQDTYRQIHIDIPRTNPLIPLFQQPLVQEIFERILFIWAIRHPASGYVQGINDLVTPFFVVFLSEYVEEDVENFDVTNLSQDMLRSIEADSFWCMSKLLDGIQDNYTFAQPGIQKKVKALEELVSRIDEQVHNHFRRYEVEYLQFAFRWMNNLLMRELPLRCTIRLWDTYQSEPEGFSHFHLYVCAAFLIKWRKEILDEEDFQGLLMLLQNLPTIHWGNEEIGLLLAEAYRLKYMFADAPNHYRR
UniProt O95455: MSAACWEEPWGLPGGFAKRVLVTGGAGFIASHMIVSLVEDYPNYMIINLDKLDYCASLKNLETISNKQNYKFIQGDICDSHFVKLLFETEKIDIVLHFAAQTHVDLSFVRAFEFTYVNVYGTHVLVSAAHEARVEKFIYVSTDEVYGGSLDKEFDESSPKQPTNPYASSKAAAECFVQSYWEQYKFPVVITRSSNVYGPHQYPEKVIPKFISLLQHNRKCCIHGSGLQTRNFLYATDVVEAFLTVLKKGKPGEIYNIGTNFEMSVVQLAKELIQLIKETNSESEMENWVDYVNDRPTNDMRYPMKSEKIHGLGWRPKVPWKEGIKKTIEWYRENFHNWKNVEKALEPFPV
UniProt Q5VWN6: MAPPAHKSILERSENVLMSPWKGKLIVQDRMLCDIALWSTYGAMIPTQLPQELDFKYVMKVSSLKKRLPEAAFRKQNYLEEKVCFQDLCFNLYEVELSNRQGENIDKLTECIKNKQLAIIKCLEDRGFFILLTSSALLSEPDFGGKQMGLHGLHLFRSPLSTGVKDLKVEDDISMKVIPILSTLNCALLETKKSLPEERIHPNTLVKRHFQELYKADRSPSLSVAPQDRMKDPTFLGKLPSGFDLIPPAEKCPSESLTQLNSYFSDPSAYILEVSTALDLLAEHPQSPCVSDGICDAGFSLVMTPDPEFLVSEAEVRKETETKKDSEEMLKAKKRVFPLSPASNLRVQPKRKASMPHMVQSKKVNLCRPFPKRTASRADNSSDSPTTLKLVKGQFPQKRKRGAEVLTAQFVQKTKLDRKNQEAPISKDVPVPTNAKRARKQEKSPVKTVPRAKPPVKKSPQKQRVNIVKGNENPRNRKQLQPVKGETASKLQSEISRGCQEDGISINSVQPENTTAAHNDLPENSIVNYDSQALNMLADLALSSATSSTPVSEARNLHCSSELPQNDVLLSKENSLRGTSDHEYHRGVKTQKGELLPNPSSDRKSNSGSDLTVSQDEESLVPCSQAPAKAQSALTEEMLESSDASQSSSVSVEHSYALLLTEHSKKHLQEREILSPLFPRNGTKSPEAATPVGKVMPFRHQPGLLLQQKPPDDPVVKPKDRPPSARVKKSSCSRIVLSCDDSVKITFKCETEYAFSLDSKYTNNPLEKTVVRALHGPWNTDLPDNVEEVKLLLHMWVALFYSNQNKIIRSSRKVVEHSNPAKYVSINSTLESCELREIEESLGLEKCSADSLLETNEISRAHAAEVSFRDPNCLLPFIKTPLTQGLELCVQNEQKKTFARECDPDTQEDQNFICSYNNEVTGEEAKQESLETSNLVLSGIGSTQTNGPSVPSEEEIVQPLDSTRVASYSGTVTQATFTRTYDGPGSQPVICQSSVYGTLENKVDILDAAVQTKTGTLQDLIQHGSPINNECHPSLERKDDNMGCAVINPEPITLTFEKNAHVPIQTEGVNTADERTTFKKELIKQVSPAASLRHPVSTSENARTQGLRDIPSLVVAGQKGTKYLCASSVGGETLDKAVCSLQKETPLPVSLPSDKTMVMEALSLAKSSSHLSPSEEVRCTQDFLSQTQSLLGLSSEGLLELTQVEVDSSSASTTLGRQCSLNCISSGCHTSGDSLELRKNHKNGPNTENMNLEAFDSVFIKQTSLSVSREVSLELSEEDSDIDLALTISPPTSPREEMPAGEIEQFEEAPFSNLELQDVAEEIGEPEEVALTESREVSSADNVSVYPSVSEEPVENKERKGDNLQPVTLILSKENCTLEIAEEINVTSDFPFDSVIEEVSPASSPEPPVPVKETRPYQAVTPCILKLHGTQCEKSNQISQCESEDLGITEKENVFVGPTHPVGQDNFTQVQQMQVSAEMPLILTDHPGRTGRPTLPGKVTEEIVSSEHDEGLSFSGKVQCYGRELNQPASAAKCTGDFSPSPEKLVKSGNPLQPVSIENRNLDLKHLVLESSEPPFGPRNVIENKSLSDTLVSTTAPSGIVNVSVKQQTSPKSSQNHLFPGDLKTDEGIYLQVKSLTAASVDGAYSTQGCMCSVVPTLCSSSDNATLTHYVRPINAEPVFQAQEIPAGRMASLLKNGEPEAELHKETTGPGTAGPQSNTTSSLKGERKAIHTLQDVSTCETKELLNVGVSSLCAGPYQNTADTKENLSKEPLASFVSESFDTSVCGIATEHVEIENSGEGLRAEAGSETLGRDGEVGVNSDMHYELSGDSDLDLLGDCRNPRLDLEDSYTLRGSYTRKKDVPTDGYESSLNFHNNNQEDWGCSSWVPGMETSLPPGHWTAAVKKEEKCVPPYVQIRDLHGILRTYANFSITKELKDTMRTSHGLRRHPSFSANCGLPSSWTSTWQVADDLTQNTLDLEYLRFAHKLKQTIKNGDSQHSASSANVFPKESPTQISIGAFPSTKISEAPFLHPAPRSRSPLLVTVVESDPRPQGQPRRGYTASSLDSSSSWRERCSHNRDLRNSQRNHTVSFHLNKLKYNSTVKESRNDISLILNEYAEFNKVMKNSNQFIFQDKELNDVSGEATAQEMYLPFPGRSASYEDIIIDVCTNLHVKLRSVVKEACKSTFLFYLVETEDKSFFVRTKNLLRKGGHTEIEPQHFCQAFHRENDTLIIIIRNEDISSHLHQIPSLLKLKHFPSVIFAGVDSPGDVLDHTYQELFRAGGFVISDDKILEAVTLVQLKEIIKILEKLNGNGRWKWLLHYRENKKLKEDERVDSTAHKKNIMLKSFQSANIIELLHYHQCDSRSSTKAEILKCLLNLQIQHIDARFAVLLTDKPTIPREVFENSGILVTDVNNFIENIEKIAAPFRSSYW
UniProt P19484: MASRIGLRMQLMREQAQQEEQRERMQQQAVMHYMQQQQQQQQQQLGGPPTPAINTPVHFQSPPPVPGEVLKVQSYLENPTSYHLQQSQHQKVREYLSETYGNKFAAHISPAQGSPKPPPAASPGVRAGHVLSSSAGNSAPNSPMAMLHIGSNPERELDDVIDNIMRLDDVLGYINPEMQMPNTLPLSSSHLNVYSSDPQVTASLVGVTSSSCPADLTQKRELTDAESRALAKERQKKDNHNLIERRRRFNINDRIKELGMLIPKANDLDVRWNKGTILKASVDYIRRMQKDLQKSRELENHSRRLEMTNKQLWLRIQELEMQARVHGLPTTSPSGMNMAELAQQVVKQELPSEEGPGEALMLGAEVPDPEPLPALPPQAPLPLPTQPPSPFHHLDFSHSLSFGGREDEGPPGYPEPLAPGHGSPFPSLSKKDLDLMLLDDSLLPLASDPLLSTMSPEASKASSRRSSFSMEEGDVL
UniProt Q7L2K0: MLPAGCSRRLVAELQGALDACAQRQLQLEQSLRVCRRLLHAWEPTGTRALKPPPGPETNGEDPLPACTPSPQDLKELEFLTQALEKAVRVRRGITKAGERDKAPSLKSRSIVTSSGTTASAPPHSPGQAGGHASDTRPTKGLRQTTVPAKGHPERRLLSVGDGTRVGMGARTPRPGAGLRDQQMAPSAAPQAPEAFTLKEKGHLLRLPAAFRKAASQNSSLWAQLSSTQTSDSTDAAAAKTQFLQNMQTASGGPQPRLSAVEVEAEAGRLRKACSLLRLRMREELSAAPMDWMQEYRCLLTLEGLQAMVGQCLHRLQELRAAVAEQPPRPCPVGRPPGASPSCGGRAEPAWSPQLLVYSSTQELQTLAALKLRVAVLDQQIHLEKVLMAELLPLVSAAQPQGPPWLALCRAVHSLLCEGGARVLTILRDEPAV

How the values were obtained:
Assay in all cases: log2 fold change, soluble protein after heating vs DMSO (PISA); higher = thermal stabilisation; K562 lysate, 10 uM; active = over 0.2 and 3.5 SD of the protein, either way, in both replicates (recomputed)
nilotinib = compound: Cc1cn(-c2cc(NC(=O)c3ccc(C)c(Nc4nccc(-c5cccnc5)n4)c3)cc(C(F)(F)F)c2)cn1 [nilotinib]
Outline: (§1)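 Following dounce homogenisation of K562 pellets in PBS pH 7.4 with 1 mM MgCl2, crude extract at 1 mg/mL protein was incubated for 30 min with 10 μM compound. Aliquots were then heated for 3 min over 48°C-58°C and pooled, NP-40 was added to 0.5% at 4°C, and soluble protein was recovered as the supernatant at 21,000xg for 90 min. Channel-sum-equalised TMTpro 16plex LC-MS/MS quantified this protein. Each value, from duplicates, is a log-two fold change in thermal stability relative to solvent controls.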

[1] = compound: Cc1nc(Nc2n[nH]c3c2CN(C(=O)N[C@H](CN(C)C)c2ccccc2)C3(C)C)c2sccc2n1
Outline: as §1

dasatinib = compound: Cc1nc(Nc2ncc(C(=O)Nc3c(C)cccc3Cl)s2)cc(N2CCN(CCO)CC2)n1 [dasatinib]
Outline: as §1

[2] = compound: Cc1ncc(-c2ccnc(Nc3ccc(S(C)(=O)=O)cc3)n2)n1C(C)C
Outline: as §1

[3] = compound: Cn1cc(-c2ccc3c(c2)CCN3C(=O)Cc2cccc(C(F)(F)F)c2)c2c(N)ncnc21
Outline: as §1

quisinostat = compound: Cn1cc(CNCC2CCN(c3ncc(C(=O)NO)cn3)CC2)c2ccccc21 [quisinostat]
Outline: as §1

tipifarnib = compound: Cn1cncc1[C@@](N)(c1ccc(Cl)cc1)c1ccc2c(c1)c(-c1cccc(Cl)c1)cc(=O)n2C [tipifarnib]
Outline: as §1

[4] = compound: NC(=O)Nc1cc(-c2cccc(F)c2)sc1C(=O)N[C@H]1CCCNC1
Outline: as §1

[5] = compound: NC(=O)c1cnc(N[C@@H]2CCCC[C@@H]2N)nc1Nc1cccc(-n2nccn2)c1
Outline: as §1

[6] = compound: NC1(c2ccc(-c3nc4ccn5c(=O)[nH]nc5c4cc3-c3ccccc3)cc2)CCC1
Outline: as §1

Target	log2 fold change (nilotinib)	log2 fold change [1]	log2 fold change (dasatinib)	log2 fold change [2]	log2 fold change [3]	log2 fold change (quisinostat)	log2 fold change (tipifarnib)	log2 fold change [4]	log2 fold change [5]	log2 fold change [6]
TANGO2 isoform 4 (UniProt Q6ICL3)	inactive: 0.031	inactive: 0.056	inactive: 0.014	inactive: -0.05	inactive: -0.017	inactive: 0.057	inactive: -0.008	inactive: -0.017	inactive: 0.039	inactive: -0.019
TARS2 (UniProt Q9BW92)	inactive: 0.198	inactive: -0.019	inactive: -0.039	inactive: 0.091	inactive: 0.054	inactive: -0.134	inactive: -0.015	inactive: 0	inactive: 0.018	inactive: 0.007
TFDP1 (UniProt Q14186)	inactive: 0.071	inactive: 0.004	inactive: -0.018	inactive: 0.059	inactive: 0	inactive: -0.021	inactive: 0.008	inactive: 0.023	inactive: 0.021	inactive: 0.077
TGFB1 (UniProt P01137)	inactive: 0.019	inactive: 0	inactive: 0.027	inactive: -0.025	inactive: -0.007	inactive: 0.045	inactive: -0.034	inactive: 0.037	inactive: 0.009	inactive: -0.021
TELO2 (UniProt Q9Y4R8)	inactive: -0.012	inactive: -0.014	inactive: -0.082	inactive: -0.021	inactive: 0.035	inactive: -0.057	inactive: -0.013	inactive: 0.058	inactive: 0.003	inactive: -0.03
TBC1D24 (UniProt Q9ULP9)	inactive: -0.021	inactive: 0.031	inactive: -0.098	inactive: -0.007	inactive: 0.006	inactive: -0.068	inactive: -0.038	inactive: 0.056	inactive: 0	inactive: -0.05
TAF8 isoform 2 (UniProt Q7Z7C8)	inactive: -0.044	inactive: 0.087	inactive: -0.101	inactive: -0.002	inactive: -0.068	inactive: 0.017	inactive: -0.113	inactive: -0.017	inactive: 0.044	inactive: -0.001
TCAF2 (UniProt A6NFQ2)	inactive: 0.051	inactive: 0.004	inactive: 0.001	inactive: 0.05	inactive: 0.042	inactive: -0.061	inactive: -0.037	inactive: 0.047	inactive: 0.041	inactive: -0.011
TBP (UniProt P20226)	inactive: -0.035	inactive: -0.037	inactive: -0.028	inactive: -0.018	inactive: 0.004	inactive: -0.153	inactive: -0.063	inactive: 0.047	inactive: 0.035	inactive: -0.012
TASP1 (UniProt Q9H6P5)	inactive: -0.319	inactive: -0.062	inactive: -0.124	inactive: 0.077	inactive: -0.003	inactive: -0.094	inactive: 0.089	inactive: 0.046	inactive: -0.053	inactive: -0.056
TBC1D4 (UniProt O60343)	inactive: -0.035	inactive: 0.031	inactive: -0.005	inactive: -0.016	inactive: 0.005	inactive: 0.039	inactive: -0.005	inactive: -0.012	inactive: 0.025	inactive: -0.01
TATDN2 (UniProt Q93075)	inactive: -0.015	inactive: 0.027	inactive: -0.075	inactive: 0.005	inactive: -0.012	inactive: 0.001	inactive: -0.012	inactive: 0.014	inactive: 0.068	inactive: -0.114
TANK (UniProt Q92844)	inactive: -0.067	active: 0.461	inactive: 0.069	inactive: 0.04	inactive: 0.088	inactive: -0.053	inactive: -0.071	inactive: 0.161	inactive: 0.042	inactive: 0.01
TBC1D22B (UniProt Q9NU19)	inactive: 0.02	inactive: -0.063	inactive: -0.013	inactive: -0.087	inactive: -0.068	inactive: 0.048	inactive: -0.031	inactive: -0.004	inactive: 0.009	inactive: -0.071
TESC (UniProt Q96BS2)	inactive: 0.031	inactive: -0.025	inactive: 0.053	inactive: 0.05	inactive: 0.02	inactive: 0.012	inactive: 0.012	inactive: -0.036	inactive: -0.035	inactive: 0.049
TFDP2 (UniProt Q14188)	inactive: 0.049	inactive: -0.019	inactive: 0.13	inactive: -0.056	inactive: -0.048	inactive: -0.129	inactive: -0.157	inactive: -0.07	inactive: 0.111	inactive: -0.003

Target	log2 fold change (nilotinib)	log2 fold change [1]	log2 fold change (dasatinib)	log2 fold change [2]	log2 fold change [3]	log2 fold change (quisinostat)	log2 fold change (tipifarnib)	log2 fold change [4]	log2 fold change [5]	log2 fold change [6]
TBCEL (UniProt Q5QJ74)	inactive: -0.059	inactive: 0.177	inactive: 0.101	inactive: -0.087	inactive: 0.012		inactive: -0.385			inactive: -0.229
TENT5C (UniProt Q5VWP2)	inactive: 0.005	inactive: 0.051		inactive: -0.048		inactive: -0.144	inactive: 0.048	inactive: 0.058	inactive: 0.037	inactive: -0.012
TBCC (UniProt Q15814)	inactive: -0.022	inactive: -0.012	inactive: -0.013	inactive: 0.036	inactive: -0.005	inactive: -0.01	inactive: 0.018	inactive: -0.008	inactive: 0.006	inactive: -0.017
TGDS (UniProt O95455)	inactive: -0.083	inactive: -0.106		inactive: 0.113		inactive: -0.014	inactive: 0.185	inactive: 0.161	inactive: -0.012	
TCEANC2 (UniProt Q96MN5)	inactive: -0.042	inactive: -0.056	inactive: 0.015	inactive: 0.212	inactive: 0.028		inactive: 0.087			inactive: 0.064
TBPL1 (UniProt P62380)	inactive: 0.061	inactive: -0.026	inactive: 0.014	inactive: -0.004	inactive: -0.071	inactive: -0.002	inactive: -0.001	inactive: 0.059	inactive: -0.05	inactive: -0.038
TDRD15 (UniProt B5MCY1)	inactive: 0.105	inactive: -0.083	inactive: -0.08	inactive: -0.055	inactive: -0.04	inactive: -0.256	inactive: 0.075	inactive: 0.008	inactive: 0.096	inactive: -0.088
TASOR2 (UniProt Q5VWN6)	inactive: -0.096	inactive: 0.069	inactive: 0	inactive: -0.051	inactive: 0.145		inactive: 0.014			
TCHP (UniProt Q9BT92)	inactive: 0.097	inactive: -0.002	inactive: 0.01	inactive: 0.03	inactive: 0.198	inactive: -0.15	inactive: 0.111	inactive: 0.058		inactive: 0.073
TCIRG1 (UniProt Q13488)	inactive: 0.066	inactive: -0.033	inactive: 0.087	inactive: -0.072	inactive: -0.067	inactive: -0.016	inactive: 0.002	inactive: 0.09	inactive: 0.021	inactive: -0.044
TAPT1 (UniProt Q6NXT6)	inactive: 0.009	inactive: 0.012	inactive: 0.013	inactive: 0.03	inactive: -0.118	inactive: -0.053	inactive: 0.017	inactive: -0.032	inactive: 0.011	inactive: -0.001
TERF1 (UniProt P54274)	inactive: 0	inactive: 0.13		inactive: 0.27		inactive: -0.063	inactive: 0.239	inactive: -0.043		
TFEB (UniProt P19484)	inactive: -0.161	inactive: 0.048		inactive: -0.026		inactive: -0.111	inactive: 0.11	inactive: 0.058		
TEDC2 (UniProt Q7L2K0)	inactive: -0.006	inactive: 0.038		inactive: -0.017		inactive: -0.103	inactive: -0.112	inactive: 0.075	inactive: -0.039	
TEFM (UniProt Q96QE5)	inactive: 0.025	inactive: -0.012	inactive: 0.067	inactive: 0.007	inactive: 0.01	inactive: -0.008	inactive: -0.02	inactive: 0.027	inactive: 0.039	inactive: 0.049

Pulled one by one from the list above:
Target	log2 fold change (nilotinib)	log2 fold change [1]	log2 fold change (dasatinib)	log2 fold change [2]	log2 fold change [3]	log2 fold change (quisinostat)	log2 fold change (tipifarnib)	log2 fold change [4]	log2 fold change [5]	log2 fold change [6]
TGDS (UniProt O95455)	inactive: -0.083	inactive: -0.106		inactive: 0.113		inactive: -0.014	inactive: 0.185	inactive: 0.161	inactive: -0.012	
TEFM (UniProt Q96QE5)	inactive: 0.025	inactive: -0.012	inactive: 0.067	inactive: 0.007	inactive: 0.01	inactive: -0.008	inactive: -0.02	inactive: 0.027	inactive: 0.039	inactive: 0.049
